Results from patent US20230192861A1.
These are yes or no findings as the source states them, for the method shown. Some binding calls cover weakened binding; strength is not graded here.

By UniProt entry, the sequences of proteins in these tests, tags left out.
UniProt Q9NZQ7: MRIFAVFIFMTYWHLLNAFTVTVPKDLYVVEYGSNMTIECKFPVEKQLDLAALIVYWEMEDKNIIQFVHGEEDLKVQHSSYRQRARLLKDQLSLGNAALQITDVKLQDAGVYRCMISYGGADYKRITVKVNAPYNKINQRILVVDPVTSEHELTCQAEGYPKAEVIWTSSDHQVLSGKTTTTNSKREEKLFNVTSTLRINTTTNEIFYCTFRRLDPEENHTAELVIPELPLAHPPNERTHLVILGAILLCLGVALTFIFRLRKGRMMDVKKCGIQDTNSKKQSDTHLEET

Target: PD-L1 (Biacore, Example 1.6) (UniProt Q9NZQ7)
Assay: Biacore

| binding | Binder |
| --- | --- |
| binds | H12 (antibody, V domains shown) VH: EVQLVESGGGLVQPGGSLRLSCAASGFTFSSYDMSWVRQAPGKSLEWVATISDAGGYIYYSDSVKGRFTISRDNAKNSLYLQMNSLRDEDTAVYICAREFGKRYALDYWGQGTTVTVSS VL: DIQMTQSPSSLSASVGDRVTITCKASQDVTPAVAWYQQKPGKAPKLLIYSTSSRYTGVPSRFSGSGSGTDFTFTISSLQPEDIATYYCQQHYTTPLTFGQGTKLEIK |
| binds | B6 (anti-PD-L1) (antibody, V domains shown) VH: EVQLVESGGGLVQPGGSLRLSCAASGFTFSSYDMSWVRQAPGKSLEWVATISDAGGYIYYRDSVKGRFTISRDNAKNSLYLQMNSLRDEDTAVYICARELPWRYALDYWGQGTTVTVSS VL: DIQMTQSPSSLSASVGDRVTITCKASQDVTPAVAWYQQKPGKAPKLLIYSTSSRYTGVPSRFSGSGSGTDFTFTISSLQPEDIATYYCQQHYTTPLTFGQGTKLEIK |
